Square brackets hold non-standard residues; d marks the D form. * marks the point of attachment. Fmoc = O=C(OCC1c2ccccc2-c2ccccc21)*; NMeF = CN[C@@H](Cc1ccccc1)C(=O)O; NMeL = CN[C@@H](CC(C)C)C(=O)O; NMeV = CN[C@H](C(=O)O)C(C)C; NMeA = CN[C@@H](C)C(=O)O; Boc = CC(C)(C)OC(=O)*; Aib = CC(C)(N)C(=O)O; Sar = CNCC(=O)O; tBu = CC(C)(C)*

We go through 38 substances from patent US20240124517 (published 2024).

A short description of data set [1]: general procedure: Fmoc solid-phase peptide synthesis; CTC resin (Trt(2-Cl)resin), dipeptide-supporting. To be noted: whole synthesis; for crude LC-MS purity: LCMS area % of the isolating reaction liquid.
Data set [2] is described as follows: general procedure: Fmoc solid-phase peptide synthesis; Sieber. To be noted: whole synthesis, Fmoc quantitation of peptide-resin vs starting resin.
A short description of data set [3]: general procedure: Fmoc solid-phase peptide synthesis; aa2-028-resin. Conditions: whole synthesis, on resin loading (Fmoc quantitation).
Data set [4] is described as follows: general procedure: Fmoc solid-phase peptide synthesis; 2-chlorotrityl. To be noted: whole synthesis, Fmoc quantitation of peptide-resin vs starting resin.
Data set [5] in a line: general procedure: Fmoc solid-phase peptide synthesis; aa2-005-resin. Conditions: whole synthesis, on resin loading (Fmoc quantitation).
Data set [6] in a line: general procedure: Fmoc solid-phase peptide synthesis; aa2-006-resin. To be noted: whole synthesis, on resin loading (Fmoc quantitation).
A short description of data set [7]: general procedure: Fmoc solid-phase peptide synthesis; aa2-009-resin. Conditions: whole synthesis, on resin loading (Fmoc quantitation).
Data set [8] in a line: general procedure: Fmoc solid-phase peptide synthesis; aa2-004-resin. Conditions: whole synthesis, on resin loading (Fmoc quantitation).
Data set [9] in a line: general procedure: Fmoc solid-phase peptide synthesis; aa2-020-resin. To be noted: whole synthesis, on resin loading (Fmoc quantitation).
Data set [10] is described as follows: general procedure: Fmoc solid-phase peptide synthesis; aa2-013-resin. To be noted: whole synthesis, on resin loading (Fmoc quantitation).
The nature of data set [11]: general procedure: Fmoc solid-phase peptide synthesis; aa2-014-resin. To be noted: whole synthesis, on resin loading (Fmoc quantitation).
The nature of data set [12]: general procedure: Fmoc solid-phase peptide synthesis; aa2-001-resin. To be noted: whole synthesis, on resin loading (Fmoc quantitation).
Data set [13] in a line: general procedure: Fmoc solid-phase peptide synthesis; aa2-012-resin. To be noted: whole synthesis, on resin loading (Fmoc quantitation).
Data set [14] is described as follows: general procedure: Fmoc solid-phase peptide synthesis; aa2-015-resin. Conditions: whole synthesis, on resin loading (Fmoc quantitation).
Data set [15] can be described thus: general procedure: Fmoc solid-phase peptide synthesis; aa2-024-resin. Conditions: whole synthesis, on resin loading (Fmoc quantitation).
Data set [16] in a line: general procedure: Fmoc solid-phase peptide synthesis; aa2-026-resin. Conditions: whole synthesis, on resin loading (Fmoc quantitation).
Data set [17] can be described thus: general procedure: Fmoc solid-phase peptide synthesis; aa2-027-resin. To be noted: whole synthesis, on resin loading (Fmoc quantitation).
Data set [18] in a line: general procedure: Fmoc solid-phase peptide synthesis; aa2-025-resin. Conditions: whole synthesis, on resin loading (Fmoc quantitation).
Data set [19] can be described thus: general procedure: Fmoc solid-phase peptide synthesis; aa2-019-resin. To be noted: whole synthesis, on resin loading (Fmoc quantitation).
Data set [20] can be described thus: general procedure: Fmoc solid-phase peptide synthesis; aa2-017-resin. Conditions: whole synthesis, on resin loading (Fmoc quantitation).
A short description of a further data set: peptide synthesis. To be noted: whole synthesis.

In data set [1] (scale 0.0375 mmol), “(2S,5S,8S,11S,14S,20S,23S,26S,29S,32S,35S)-14-benzyl-32-cyclopentyl-N,N,1,2,7,11,13,19,20,25,26,29,31,34-tetradecamethyl-5,8,23-tris(2-methylpropyl)-3,6,9,12,15,18,21,24,27,30,33,37-dodecaoxo-1,4,7,10,13,16,19,22,25,28,31,34-dodecazacycloheptatriacontane-35-carboxamid” yielded an isolated mass of 25.6 mg and an isolated yield of 54%.

In [1] (scale 0.0389 mmol), “(3S,6S,9S,12S,15S,18S,21S,24S,30S,33S,36S)-21-benzyl-3,6,10,15,16,22,24,28,33,34-decamethyl-9,12,18,30-tetrakis(2-methylpropyl)-1,4,7,10,13,16,19,22,25,28,31,34-dodecazabicyclo[34.3.0]nonatriacontane-2,5,8,11,14,17,20,23,26,29,32,35-dodecaone” displayed an isolated mass of 23.8 mg and an isolated yield of 52%.

In the case of “(3S,6S,12S,15S,18S,21S,24S,27S,30S,33S)-27-benzyl-6,7,10,13,15,19,21,22,28,30-decamethyl-3,18,24-tris(2-methylpropyl)-12-propan-2-yl-1,4,7,10,13,16,19,22,25,28,31-undecazabicyclo[31.3.0]hexatriacontan-2,5,8,11,14,17,20,23,26,29,32-undecaone”, in data set [1] (scale 0.0379 mmol), the isolated mass was 7.07 mg and the isolated yield is 17%.

In [1] (scale 0.025 mmol), “(3S,9S,12S,18S,21S,24S,27S,30S,33S)-18,33-dibenzyl-1,3,4,10,12,13,21,22,28,30-decamethyl-9,24,27-tris(2-methylpropyl)-1,4,7,10,13,16,19,22,25,28,31-undecazacyclotritriacontan-2,5,8,11,14,17,20,23,26,29,32-undecaone” returned an isolated mass of 7.03 mg and an isolated yield of 25%.

The substance Fmoc-MeAla-Leu-Ala-MeVal-MeAsn-pip came in with a crude yield in data set [2] (scale 0.0535 mmol) of 97.0%. Moreover, the “crude LC-MS purity” value in data set [1] came out at 95.0 area %.

The substance “Fmoc-MeAla-Leu-McLeu-Ala-Gly-MePhe-MeAla-Leu-MeAla-Phe-Gly-OH” displayed a crude yield in data set [3] of 47.7%. In [1], the “crude LC-MS purity” value came out at 100 area %.

In turn, “Fmoc-MeAla-Leu-McLeu-Ala-MeGly(cPent)-MeAsp-NMe2” came in with a crude yield in [4] (scale 0.0376 mmol) of 80.2%. In addition, the “crude LC-MS purity” value in data set [1] turned out to be 98.0 area %.

Turning to “Fmoc-MeAla-Leu-McLeu-Ala-MePhe-Gly-MeAla-Leu-Ala-MeLeu-Gly-bAla(2-Me2)-MeAsp-NMe2”, the crude yield in data set [4] (scale 0.0411 mmol) worked out at 81.5%. Also, the “crude LC-MS purity” value in data set [1] came out at 97.9 area %.

On to “Fmoc-MeAla-Leu-McLeu-Ala-MePhe-Gly-MeAla-Leu-Ala-MeLeu-MeAla-Asn(Trt)-Gly-OH”, for which the crude yield in data set [4] (scale 0.0258 mmol) turned out to be 66.6%. The “crude LC-MS purity” value in [1] amounted to 100 area %.

Consider “Fmoc-MeAla-Leu-McLeu-Ala-MePhe-Gly-MeAla-Leu-MePhe-MeAla-Ala-MeLeu-Ala-MeVal-MeGly-OH”, for which the crude yield in data set [4] (scale 0.0371 mmol) is 62.8%. For the same substance, the “crude LC-MS purity” value in data set [1] came out at 100 area %.

On to “Fmoc-MeAla-Leu-MeGly-Ala-Leu-MePhe-Ala-Pro-Ala-McLeu-MeAsp-pip”, for which the crude yield in [5] came out at 83.1%. Further, in [1], the “crude LC-MS purity” value stood at 97.6 area %.

On to “Fmoc-MeAla-Leu-MeGly-Ala-Leu-MePhe-Ala-Pro-Ala-MeVal-MeAsn-pip”, for which the crude yield in [2] (scale 0.0526 mmol) amounted to 93.9%. Also, in data set [1], the “crude LC-MS purity” value was 98.8 area %.

For the substance “Fmoc-MeAla-Leu-MeGly-Ala-Leu-MePhe-MeAla-Gly-MePhe-Pro-Ala-MeLeu-Gly-MeVal-D-MeAsp-NMe2”, the crude yield in data set [4] (scale 0.0395 mmol) was 83.6%. Moreover, in data set [1], the “crude LC-MS purity” value is on record as 98.0 area %.

The substance “Fmoc-MeAla-Leu-MeGly-MeAla-Ala-MeGly(cPent)-MeAsp-NMe2” showed a crude yield in data set [6] of 79.1%. In data set [1], the “crude LC-MS purity” value is recorded as 98.5 area %.

In the case of “Fmoc-MeAla-Leu-MeGly-MeAla-Ala-MeVal-MeAsn-pip”, in data set [2] (scale 0.0527 mmol), the crude yield was determined as 94.9%. For the same substance, in data set [1], the “crude LC-MS purity” value is on record as 95.0 area %.

On to “Fmoc-MeAla-Leu-MeGly-MeAla-Leu-MePhe-Ala-MeChg-D-3-MeAbu-OH”, for which the crude yield in data set [7] is reported as 82.2%. In addition, the “crude LC-MS purity” value in data set [1] is 100 area %.

With “Fmoc-MeAla-Leu-MeGly-MeAla-Leu-MePhe-MeAla-Gly-Leu-MeLeu-Ala-MeChg-MeAsp-pip”, in data set [8], the crude yield is given as 85.1%. In data set [1], the “crude LC-MS purity” value was 97.9 area %.

In turn, “Fmoc-MeAla-Leu-MeGly-MeAla-Leu-MePhe-MeAla-Gly-Leu-MeLeu-MeAla-Ala-MeGly(cPent)-MeAsp-NMe2” showed a crude yield in data set [4] (scale 0.0379 mmol) of 81.9%. For the same substance, the “crude LC-MS purity” value in data set [1] is 97.2 area %.

In turn, “Fmoc-MeAla-Leu-MeLeu-Ala-Gly-MePhe-MeAla-Leu-Gly-D-MeVal-MeAsp-NMe2” came in with a crude yield in data set [9] of 78.1%. Further, the “crude LC-MS purity” value in data set [1] worked out at 97.8 area %.

In turn, “Fmoc-MeAla-Leu-MeLeu-Ala-MePhe-Ala-MeLeu-Gly-MeAsp-NMe2” had a crude yield in [10] of 81.0%. In addition, in data set [1], the “crude LC-MS purity” value was 96.2 area %.

As to “Fmoc-MeAla-Leu-MeLeu-MeAla-Gly-Aib-MeAsp-NMe2”, the crude yield in [11] came out at 79.1%. Besides, in [1], the “crude LC-MS purity” value is given as 97.2 area %.

In the case of “Fmoc-MeAla-McLeu-Ala-MeGly-MePhe-Leu-McLeu-Ala-Ala-Pro-OH”, the crude yield in data set [4] (scale 0.0389 mmol) amounted to 64.3%. In addition, the “crude LC-MS purity” value in data set [1] came out at 98.3 area %.

In turn, “Fmoc-MeAla-MeLeu-Ala-MeLeu-MePhe-Leu-MeAla-Ala-MeGly(cPent)-MeAsp-NMe2” gave a crude yield in data set [4] (scale 0.0373 mmol) of 71.0%. For the same substance, the “crude LC-MS purity” value in [1] was 96.3 area %.

Substance Fmoc-MeAla-MeLeu-Ala-MeVal-MeAsp-pip registered a crude yield in [12] of 84.9%. For the same substance, in [1], the “crude LC-MS purity” value was 96.9 area %.

On to Fmoc-MeAla-MeLeu-Gly-MeVal-Asp-NMe2, for which, in data set [13], the crude yield is 78.6%. Also, the “crude LC-MS purity” value in data set [1] was found to be 94.7 area %.

As for “Fmoc-MeAla-MeLeu-Gly-bAla(2-Me2)-D-3-MeAbu-OH”, in data set [14], the crude yield is listed as 69.6%. Also, the “crude LC-MS purity” value in data set [1] amounted to 98.3 area %.

In the case of Fmoc-[NMeA]L[NMeA]FP-OH, in data set [15], the crude yield stood at 77.9%. For the same substance, the “crude LC-MS purity” value in data set [1] is 97.7 area %.

In the case of Fmoc-[NMeA]L[NMeL]AAP-OH, the crude yield in [4] (scale 0.0391 mmol) was 74.6%. Further, the “crude LC-MS purity” value in data set [1] was determined as 99.0 area %.

In the case of Fmoc-[NMeA]L[NMeL]A[NMeA]GY(tBu)-OH, in [16], the crude yield is 53.0%. For the same substance, in [1], the “crude LC-MS purity” value was 98.1 area %.

In the case of “Fmoc-[NMeA]L[NMeL]A[NMeF]G[NMeA]L[NMeF]PA[NMeL][NMeA]S(tBu)G-OH”, the crude yield in data set [4] (scale 0.0253 mmol) is 70.3%. Further, the “crude LC-MS purity” value in data set [1] is 98.8 area %.

Regarding Fmoc-[NMeA]L[NMeL]A[NMeF]G[NMeL]AA-OH, the crude yield in [17] is on record as 51.8%. In [1], the “crude LC-MS purity” value came to 100 area %.

As to “Fmoc-[NMeA]L[Sar]AL[NMeF]AP[NMeA]K(Boc)P-OH”, the crude yield in data set [18] was determined as 76.0%. The “crude LC-MS purity” value in data set [1] is 100 area %.

For “Fmoc-[NMeA]L[Sar]AL[NMeF][NMeA]G[NMeF][NMeA]A[NMeL][NMeA]GV-OH”, the crude yield in data set [4] (scale 0.0276 mmol) amounted to 77.3%. Further, the “crude LC-MS purity” value in data set [1] is 99.6 area %.

As to Fmoc-[NMeA]L[Sar][NMeA]A[NMeV]G-OH, the crude yield in data set [19] worked out at 50.1%. Besides, in [1], the “crude LC-MS purity” value came to 100 area %.

In [20], “Fmoc-[NMeA]L[Sar][NMeA]L[NMeF]A[NMeV]P-OH” yielded a crude yield of 82.7%. Besides, the “crude LC-MS purity” value in data set [1] stood at 100 area %.

On to “Fmoc-[NMeA]L[Sar][NMeA]L[NMeF][NMeA]GL[NMeL]A[NMeL][Aib]-OH”, for which, in data set [4] (scale 0.0299 mmol), the crude yield was determined as 80.0%. In addition, the “crude LC-MS purity” value in [1] came to 100 area %.

The substance “Fmoc-[NMeA]L[Sar][NMeA]L[NMeF][NMeA]GL[NMeL][NMeA]AAP-OH” showed a crude yield in data set [4] (scale 0.0391 mmol) of 77.2%. The “crude LC-MS purity” value in data set [1] was 100 area %.

The substance “H-MeAla-Leu-MeGly-Ala-MePhe-Leu-MeAla-Leu-Gly-MeVal-MeAsp-pip” showed an isolated yield in the data set “peptide synthesis” of 66%.
